Like-named read-outs stand apart in the source and are kept apart here. Not every detail of the peptide structures is certain; ends, links or a residue may be inferred. Some compounds share one wording; it may come from a single statement. Ends that are not written are not given here.
How the values were obtained:
melanoma B16F10 = assay: transplanted melanoma B16F10 in C57BL/6 black mice; settings: hypodermic, 14 days
Experimental: Hypodermically injecting polypeptides and other drugs into the left axillary region of mice from the experimental groups respectively while administering only equal quantity of physiological saline to the mice from the negative control group. The total medication period was 14 days, during which cyclophosphamide was administered once every other day, taxol once every three days, low-dose polypeptide twice a day and all other drugs once a day.

[1] = system: human laryngeal cancer Hep-2; assay: heterotransplanted human laryngeal cancer Hep-2 in nude mice; type: in vivo; settings: for tumor inhibition rate / tumor weight: daily, tail vein injection; for inhibition rate on tumor: tail vein daily
Excerpt: (§1) The total medication period was 14 days.

[2] = system: human bladder cancer HT1376; assay: heterotransplanted human bladder cancer HT1376 in nude mice; type: in vivo; settings: for tumor inhibition rate / tumor weight: daily, tail vein injection; for inhibition rate on tumor: tail vein daily
Excerpt: as §1

[3] = system: human prostate cancer DU-145; type: in vivo, nude mice; settings: for tumor inhibition rate / tumor weight: daily, tail vein injection; for inhibition rate on tumor: tail vein daily
[4] = system: human pancreatic cancer SW-1990; assay: heterotransplanted human pancreatic cancer SW-1990 in nude mice; type: in vivo; settings: for tumor inhibition rate / tumor weight: daily, tail vein injection; for inhibition rate on tumor: tail vein daily
Excerpt: as §1

[5] = system: human gallbladder cancer GBC-SD; assay: heterotransplanted human gallbladder cancer GBC-SD in nude mice; settings: for tumor inhibition rate / tumor weight: daily, tail vein injection; for inhibition rate on tumor: tail vein daily
adjuvant arthritis = assay: adjuvant-induced arthritis (AIA) rat models; type: in vivo, SD rats; settings: for in vivo immunoprotective / therapeutic effect on AIA rat models: all doses, hypodermic twice a day, 10 days; for swelling of left paws / swelling of right paws / clinical scoring: AIA rats; for clinical scoring: joint score, 16 as the highest point
[6] = system: human liver cancer SMMC-7721; settings: tail vein daily
[7] = system: human gastric cancer MGC-803; assay: heterotransplanted human gastric cancer MGC-803 in nude mice; settings: tail vein daily
sarcoma HT-1080 = type: in vivo, nude mice; settings: for tumor inhibition rate / tumor weight: daily, tail vein injection; for inhibition rate on tumor: tail vein daily
Excerpt: as §1

[8] = system: human esophageal cancer Ec109; type: in vivo, nude mice; settings: for tumor inhibition rate / tumor weight: daily, tail vein injection; for inhibition rate on tumor: tail vein daily
Excerpt: as §1

[9] = system: human testicular cancer 5637; type: in vivo, nude mice; settings: for tumor inhibition rate / tumor weight: daily, tail vein injection; for inhibition rate on tumor: tail vein daily
Excerpt: as §1

human brain tumor SF763 = settings: for tumor inhibition rate / tumor weight: daily, tail vein injection; for inhibition rate on tumor: tail vein daily
[10] = system: human cervical cancer HeLa; type: in vivo, nude mice; settings: tail vein daily
[11] = system: human rectal cancer Colo 320; settings: for tumor inhibition rate / tumor weight: daily, tail vein injection; for inhibition rate on tumor: tail vein daily
[12] = 0.09375 mg/kg/time bid (twice a day)

“FQPVLHLVALNSPLSGGMRGIRGADFQCFQQARAVGLAGTFRAGGGGRGD [polypeptide III]” was tested, and the tumor inhibition rate (melanoma B16F10; 0.09375 mg/kg/time (not bid)) was 68.67%, the tumor weight (melanoma B16F10; 0.09375 mg/kg/time (not bid)) was 1.25 ± 0.47 g and the tumor inhibition rate (melanoma B16F10; [12]) was 69.21%. The tumor weight (melanoma B16F10; [12]) was 1.23 ± 0.27 g, the tumor inhibition rate (melanoma B16F10; 0.1875 mg/kg/time once a day) was 59.82% and the tumor weight (melanoma B16F10; 0.1875 mg/kg/time once a day) was 1.60 ± 1.09 g. For the same sequence, the tumor inhibition rate (melanoma B16F10; 0.375 mg/kg/time once a day) was 63.07%, the tumor weight (melanoma B16F10; 0.375 mg/kg/time once a day) was 1.47 ± 0.42 g and the tumor inhibition rate ([1]; 0.1875 mg/kg/time) was 67.29%. It also gave a tumor weight ([1]; 0.1875 mg/kg/time) of 0.37 ± 0.08 g, a tumor inhibition rate ([1]; 0.375 mg/kg/time) of 75.13% and a tumor weight ([1]; 0.375 mg/kg/time) of 0.28 ± 0.05 g. The tumor inhibition rate ([1]; 0.75 mg/kg/time) was 62.81%, the tumor weight ([1]; 0.75 mg/kg/time) was 0.42 ± 0.10 g and the “inhibition rate on tumor” value ([1]; high dose) was 62.81%. For the same sequence, the “inhibition rate on tumor” value ([1]; low dose) was 67.29%, the “inhibition rate on tumor” value ([1]; medium dose) was 75.13% and the tumor inhibition rate ([2]; 0.1875 mg/kg/time) was 72.55%. It also gave a tumor weight ([2]; 0.1875 mg/kg/time) of 0.33 ± 0.09 g, a tumor inhibition rate ([2]; 0.375 mg/kg/time) of 76.94% and a tumor weight ([2]; 0.375 mg/kg/time) of 0.28 ± 0.08 g. The tumor inhibition rate ([2]; 0.75 mg/kg/time) was 67.92%, the tumor weight ([2]; 0.75 mg/kg/time) was 0.38 ± 0.10 g and the “inhibition rate on tumor” value ([2]; high dose) was 67.92%. For the same sequence, the “inhibition rate on tumor” value ([2]; low dose) was 72.55%, the “inhibition rate on tumor” value ([2]; medium dose) was 76.94% and the tumor inhibition rate ([3]; 0.1875 mg/kg/time) was 64.08%. The tumor weight ([3]; 0.1875 mg/kg/time) was 0.51 ± 0.15 g, the tumor inhibition rate ([3]; 0.375 mg/kg/time) was 69.90% and the tumor weight ([3]; 0.375 mg/kg/time) was 0.43 ± 0.13 g. The tumor inhibition rate ([3]; 0.75 mg/kg/time) was 60.73%, the tumor weight ([3]; 0.75 mg/kg/time) was 0.56 ± 0.14 g and the “inhibition rate on tumor” value ([3]; high dose) was 60.73%. For the same sequence, the “inhibition rate on tumor” value ([3]; low dose) was 64.08%, the “inhibition rate on tumor” value ([3]; medium dose) was 69.90% and the tumor inhibition rate ([4]; 0.1875 mg/kg/time) was 74.68%. The tumor weight ([4]; 0.1875 mg/kg/time) was 0.33 ± 0.08 g, the tumor inhibition rate ([4]; 0.375 mg/kg/time) was 78.64% and the tumor weight ([4]; 0.375 mg/kg/time) was 0.28 ± 0.06 g. The tumor inhibition rate ([4]; 0.75 mg/kg/time) was 71.01%, the tumor weight ([4]; 0.75 mg/kg/time) was 0.37 ± 0.08 g and the “inhibition rate on tumor” value ([4]; high dose) was 71.01%. The “inhibition rate on tumor” value ([4]; low dose) was 74.68%, the “inhibition rate on tumor” value ([4]; medium dose) was 78.64% and the tumor inhibition rate ([5]; 0.1875 mg/kg/time) was 64.55%. For the same sequence, the tumor weight ([5]; 0.1875 mg/kg/time) was 0.43 ± 0.09 g, the tumor inhibition rate ([5]; 0.375 mg/kg/time) was 74.62% and the tumor weight ([5]; 0.375 mg/kg/time) was 0.30 ± 0.09 g. For the same sequence, the tumor inhibition rate ([5]; 0.75 mg/kg/time) was 63.73%, the tumor weight ([5]; 0.75 mg/kg/time) was 0.44 ± 0.11 g and the “inhibition rate on tumor” value ([5]; high dose) was 63.73%. For the same sequence, the “inhibition rate on tumor” value ([5]; low dose) was 64.55%, the “inhibition rate on tumor” value ([5]; medium dose) was 74.62% and the “in vivo immunoprotective / therapeutic effect on AIA rat models” value (adjuvant arthritis) was “have therapeutic effect”. For the same sequence, the “in vivo immunoprotective / therapeutic effect on AIA rat models” value (adjuvant arthritis; listed as Polypeptide III) was “presented in vivo immunoprotective effect”, the “swelling of left paws” value (adjuvant arthritis; dose 0.4 mg/kg) was 3.72 ± 0.76 mm and the “swelling of right paws” value (adjuvant arthritis; dose 0.4 mg/kg) was 0.73 ± 0.21 mm. The clinical scoring (adjuvant arthritis; dose 0.4 mg/kg) was 5.29 ± 1.04, the “swelling of left paws” value (adjuvant arthritis; dose 0.8 mg/kg) was 4.65 ± 0.94 mm and the “swelling of right paws” value (adjuvant arthritis; dose 0.8 mg/kg) was 1.17 ± 0.26 mm. The clinical scoring (adjuvant arthritis; dose 0.8 mg/kg) was 6.33 ± 1.20, the “joint scoring in contrast with model control group” value (adjuvant arthritis; high-, medium- and low-dose groups, p<0.05) was “significantly lower” and the “diameter (swelling degree) of the right hind paw in contrast with model control group” value (adjuvant arthritis; low-, medium- and high-dose groups, p<0.05) was “significant difference”. The “diameter of the left hind paw in contrast with model control group” value (adjuvant arthritis; low-dose and high-dose groups, p<0.05) was “significant difference”, the “diameter of the left hind paw in contrast with model control group” value (adjuvant arthritis; medium-dose group, p<0.01) was “extremely significant difference” and the tumor inhibition rate ([6]; 0.1875 mg/kg/time) was 71.85%. For the same sequence, the tumor weight ([6]; 0.1875 mg/kg/time) was 0.35 ± 0.04 g, the tumor inhibition rate ([6]; 0.375 mg/kg/time) was 82.55% and the tumor weight ([6]; 0.375 mg/kg/time) was 0.22 ± 0.03 g. It also gave a tumor inhibition rate ([6]; 0.75 mg/kg/time) of 77.55%, a tumor weight ([6]; 0.75 mg/kg/time) of 0.28 ± 0.03 g and a tumor inhibition rate ([7]; 0.1875 mg/kg/time) of 70.08%. For the same sequence, the tumor weight ([7]; 0.1875 mg/kg/time) was 0.23 ± 0.05 g, the tumor inhibition rate ([7]; 0.375 mg/kg/time) was 66.03% and the tumor weight ([7]; 0.375 mg/kg/time) was 0.27 ± 0.06 g. For the same sequence, the tumor inhibition rate ([7]; 0.75 mg/kg/time) was 57.65%, the tumor weight ([7]; 0.75 mg/kg/time) was 0.33 ± 0.09 g and the tumor inhibition rate (sarcoma HT-1080; 0.1875 mg/kg/time) was 75.87%. The tumor weight (sarcoma HT-1080; 0.1875 mg/kg/time) was 0.33 ± 0.07 g, the tumor inhibition rate (sarcoma HT-1080; 0.375 mg/kg/time) was 79.90% and the tumor weight (sarcoma HT-1080; 0.375 mg/kg/time) was 0.28 ± 0.06 g. The tumor inhibition rate (sarcoma HT-1080; 0.75 mg/kg/time) was 73.29%, the tumor weight (sarcoma HT-1080; 0.75 mg/kg/time) was 0.37 ± 0.10 g and the “inhibition rate on tumor” value (sarcoma HT-1080; high dose) was 73.29%. For the same sequence, the “inhibition rate on tumor” value (sarcoma HT-1080; low dose) was 75.87%, the “inhibition rate on tumor” value (sarcoma HT-1080; medium dose) was 79.90% and the tumor inhibition rate ([8]; 0.1875 mg/kg/time) was 65.63%. It also gave a tumor weight ([8]; 0.1875 mg/kg/time) of 0.53 ± 0.14 g, a tumor inhibition rate ([8]; 0.375 mg/kg/time) of 67.13% and a tumor weight ([8]; 0.375 mg/kg/time) of 0.50 ± 0.12 g. For the same sequence, the tumor inhibition rate ([8]; 0.75 mg/kg/time) was 59.75%, the tumor weight ([8]; 0.75 mg/kg/time) was 0.62 ± 0.18 g and the “inhibition rate on tumor” value ([8]; high dose) was 59.75%. The “inhibition rate on tumor” value ([8]; low dose) was 65.63%, the “inhibition rate on tumor” value ([8]; medium dose) was 67.13% and the tumor inhibition rate ([9]; 0.1875 mg/kg/time) was 62.63%. It also gave a tumor weight ([9]; 0.1875 mg/kg/time) of 0.47 ± 0.12 g, a tumor inhibition rate ([9]; 0.375 mg/kg/time) of 65.11% and a tumor weight ([9]; 0.375 mg/kg/time) of 0.44 ± 0.12 g. The tumor inhibition rate ([9]; 0.75 mg/kg/time) was 60.51%, the tumor weight ([9]; 0.75 mg/kg/time) was 0.50 ± 0.10 g and the “inhibition rate on tumor” value ([9]; high dose) was 60.51%. The “inhibition rate on tumor” value ([9]; low dose) was 62.63%, the “inhibition rate on tumor” value ([9]; medium dose) was 65.11% and the tumor inhibition rate (human brain tumor SF763; 0.1875 mg/kg/time) was 72.82%. For the same sequence, the tumor weight (human brain tumor SF763; 0.1875 mg/kg/time) was 0.32 ± 0.08 g, the tumor inhibition rate (human brain tumor SF763; 0.375 mg/kg/time) was 79.76% and the tumor weight (human brain tumor SF763; 0.375 mg/kg/time) was 0.24 ± 0.05 g. For the same sequence, the tumor inhibition rate (human brain tumor SF763; 0.75 mg/kg/time) was 74.06%, the tumor weight (human brain tumor SF763; 0.75 mg/kg/time) was 0.31 ± 0.09 g and the “inhibition rate on tumor” value (human brain tumor SF763; high dose) was 74.06%. For the same sequence, the “inhibition rate on tumor” value (human brain tumor SF763; low dose) was 72.82%, the “inhibition rate on tumor” value (human brain tumor SF763; medium dose) was 79.76% and the tumor inhibition rate ([10]; 0.1875 mg/kg/time) was 68.68%. For the same sequence, the tumor weight ([10]; 0.1875 mg/kg/time) was 0.44 ± 0.11 g, the tumor inhibition rate ([10]; 0.375 mg/kg/time) was 72.41% and the tumor weight ([10]; 0.375 mg/kg/time) was 0.39 ± 0.08 g. For the same sequence, the tumor inhibition rate ([10]; 0.75 mg/kg/time) was 64.35%, the tumor weight ([10]; 0.75 mg/kg/time) was 0.50 ± 0.15 g and the tumor inhibition rate ([11]; 0.1875 mg/kg/time) was 70.34%. It also gave a tumor weight ([11]; 0.1875 mg/kg/time) of 0.37 ± 0.07 g, a tumor inhibition rate ([11]; 0.375 mg/kg/time) of 80.89% and a tumor weight ([11]; 0.375 mg/kg/time) of 0.24 ± 0.05 g. The tumor inhibition rate ([11]; 0.75 mg/kg/time) was 73.51%, the tumor weight ([11]; 0.75 mg/kg/time) was 0.33 ± 0.08 g and the “inhibition rate on tumor” value ([11]; high dose) was 73.51%. The “inhibition rate on tumor” value ([11]; low dose) was 70.34% and the “inhibition rate on tumor” value ([11]; medium dose) was 80.89%.
